Values from PubChem BioAssay AID1259254 (NCATS, 2017).

Aim: 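Gene knock-downs that lead to re-replication, shown by excess G2 DNA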 (primary screen)
System: human HCT116 colorectal cancer cells
Reagents: single siRNA against human genes
Timing: 3 days
Detection: 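Imaged Hoechst DNA stain sorts each cell into a cycle phase by DNA amount; per plate, G2 fraction set to 0% for non-targeting and 100% for GMNN siRNA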
Direction: G2 robust z-score and G2 cells, % of GMNN control: higher = more G2 cells, more excess DNA replication; raw share of cells in G2: higher = larger share of cells with G2 DNA content
Active means: 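Active siRNAs have a G2 robust z of 5 or more median absolute deviations over the median, which in these data means about 38% or higher of GMNN control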
This is one part, drawn at random, of about 59,000 reagents. In the full data, about 1,550 (2.6%) got an active call. 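G2 share is only a proxy for re-replication; each gene was hit by three separate siRNAs, and active genes were retested.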 Raw values vary from plate to plate and are shown uncorrected. The numbers tell different reagents against one gene apart. No sequences are given here. The record does not give: the amount of reagent.

| target | siRNA no. | G2 robust z-score | G2 cells, % of GMNN control | raw share of cells in G2 (%) | Outcome |
| --- | --- | --- | --- | --- | --- |
| THEMIS | 1 | 0.0276 | 3.16 | 4.86 | inactive |
| THEMIS | 2 | -0.311 | 0.781 | 3.74 | inactive |
| THEMIS | 3 | -1.12 | -4.88 | 2.54 | inactive |
| SLC26A1 | 1 | 3.06 | 24.5 | 11.8 | inactive |
| SLC26A1 | 2 | 4.19 | 32.5 | 19.8 | inactive |
| SLC26A1 | 3 | 2.33 | 19.3 | 14.1 | inactive |
| ARHGAP1 | 1 | 1.05 | 10.3 | 8.24 | inactive |
| ARHGAP1 | 2 | -0.688 | -1.88 | 3.29 | inactive |
| ARHGAP1 | 3 | -1.3 | -6.15 | 2.89 | inactive |
| ELMO3 | 1 | -0.182 | 1.69 | 6.13 | inactive |
| ELMO3 | 2 | -0.252 | 1.2 | 5.23 | inactive |
| ELMO3 | 3 | -0.502 | -0.566 | 3.99 | inactive |
| PILRA | 1 | -0.518 | -0.68 | 3.42 | inactive |
| PILRA | 2 | -0.484 | -0.439 | 2.64 | inactive |
| PILRA | 3 | -0.21 | 1.49 | 6.58 | inactive |
| ARHGAP35 | 1 | 1.42 | 13 | 10.2 | inactive |
| ARHGAP35 | 2 | 0.225 | 4.55 | 5.28 | inactive |
| ARHGAP35 | 3 | 0.492 | 6.43 | 7.57 | inactive |
| NEU2 | 1 | -0.382 | 0.276 | 5.09 | inactive |
| NEU2 | 2 | 1.56 | 13.9 | 9.73 | inactive |
| NEU2 | 3 | 0.243 | 4.68 | 5.05 | inactive |
| LMTK3 | 1 | 0.79 | 8.53 | 8.24 | inactive |
| LMTK3 | 2 | -0.803 | -2.68 | 4.22 | inactive |
| LMTK3 | 3 | -0.317 | 0.735 | 3.92 | inactive |
| SLC27A1 | 1 | 0.96 | 9.72 | 10.1 | inactive |
| SLC27A1 | 2 | -0.646 | -1.58 | 4.34 | inactive |
| SLC27A1 | 3 | -0.417 | 0.0367 | 4.3 | inactive |
| KANK2 | 1 | 1.79 | 15.6 | 10.3 | inactive |
| KANK2 | 2 | 3.57 | 28.1 | 16.1 | inactive |
| KANK2 | 3 | 1.23 | 11.6 | 7.35 | inactive |
| SH3TC2 | 1 | 0.313 | 5.17 | 6.83 | inactive |
| SH3TC2 | 2 | 0.0268 | 3.16 | 6.02 | inactive |
| SH3TC2 | 3 | -0.475 | -0.378 | 2.6 | inactive |
| PHOSPHO1 | 1 | -0.722 | -2.11 | 3.81 | inactive |
| PHOSPHO1 | 2 | 3.78 | 29.6 | 15.5 | inactive |
| PHOSPHO1 | 3 | -1.23 | -5.68 | 3.25 | inactive |
| RNF166 | 1 | 1.15 | 11.1 | 6.9 | inactive |
| RNF166 | 2 | 3.51 | 27.6 | 12.8 | inactive |
| RNF166 | 3 | -0.495 | -0.517 | 3.34 | inactive |
| GRAPL-AS1 | 1 | 2.67 | 21.8 | 8.33 | inactive |
| GRAPL-AS1 | 2 | -1.22 | -5.6 | 2.12 | inactive |
| GRAPL-AS1 | 3 | 0.348 | 5.42 | 6.67 | inactive |
| AP4S1 | 1 | -0.94 | -3.65 | 4.9 | inactive |
| AP4S1 | 2 | -0.167 | 1.79 | 4.76 | inactive |
| AP4S1 | 3 | 1.49 | 13.5 | 8.47 | inactive |
| CEACAM20 | 1 | -0.0765 | 2.43 | 5.07 | inactive |
| CEACAM20 | 2 | -0.676 | -1.79 | 2.8 | inactive |
| CEACAM20 | 3 | 0.898 | 9.28 | 4.53 | inactive |
| HBQ1 | 1 | -0.965 | -3.82 | 3.66 | inactive |
| HBQ1 | 2 | -1.64 | -8.6 | 2.41 | inactive |
| HBQ1 | 3 | -0.688 | -1.87 | 3.51 | inactive |
| IZUMO4 | 1 | -0.734 | -2.2 | 1.18 | inactive |
| IZUMO4 | 2 | 1.17 | 11.2 | 8.59 | inactive |
| IZUMO4 | 3 | -0.471 | -0.347 | 3.23 | inactive |
| WFDC13 | 1 | -0.55 | -0.899 | 3.28 | inactive |
| WFDC13 | 2 | 0.612 | 7.27 | 5.4 | inactive |
| WFDC13 | 3 | 0.0761 | 3.5 | 3.87 | inactive |
| ITPKC | 1 | -1.14 | -5.09 | 4.01 | inactive |
| ITPKC | 2 | -1.23 | -5.7 | 3.12 | inactive |
| ITPKC | 3 | -0.461 | -0.274 | 3.59 | inactive |
| CDK12 | 1 | -0.858 | -3.07 | 4.63 | inactive |
| CDK12 | 2 | -0.395 | 0.187 | 5.26 | inactive |
| CDK12 | 3 | -0.622 | -1.41 | 3.23 | inactive |
| FAM151A | 1 | -0.048 | 2.63 | 4.89 | inactive |
| FAM151A | 2 | 3.21 | 25.6 | 14.4 | inactive |
| FAM151A | 3 | 0.159 | 4.09 | 5.83 | inactive |
| COA7 | 1 | -0.185 | 1.66 | 5.31 | inactive |
| COA7 | 2 | 0.0196 | 3.11 | 6 | inactive |
| COA7 | 3 | 2.7 | 22 | 8.49 | inactive |
